HELM strings list residues between dots; [ac] is acetyl, [am] amide, other brackets name non-standard units. [ ]: non-standard residue; d: D form. The star is where a group is joined. Gly(N-2-aminoethyl) = NCCNCC(=O)O; Palmitoyl = CCCCCCCCCCCCCCCC(=O)*; Myristoyl = CCCCCCCCCCCCCC(=O)*; Gly(N-cHex) = O=C(O)CNC1CCCCC1; Nlys = NCCCCNCC(=O)O

A short description of the first series: general procedure: Fmoc solid-phase peptide synthesis; Fmoc protected polystyrene Rink Amide resin; bromoacetic acid (2 M) / diisopropylcarbodiimide (3.2 M), submonomer method. The settings on record: whole synthesis.
Substance “PEPTIDE1{[Ntri].[Nnap].[Nlys].[Nae].[Nnap].[am]}$$$$V2.0” showed an isolated yield of 7.1%.

Substance “PEPTIDE1{[Ndoa].[Ncha].[Nlys].[Nae].[Ncha].[am]}$$$$V2.0” yielded an isolated yield of 8.7%. Turning to “PEPTIDE1{[Ndha].[Ncha].[Nlys].[Nae].[Ncha].[am]}$$$$V2.0”, the isolated yield is 23.8%. On the same count and under the same terms, for “PEPTIDE1{[Ntri].[Nspe].[Nlys].[Nae].[Nspe].[am]}$$$$V2.0” the value was 3.0%; for “PEPTIDE1{[Ntri].[Nphe].[Nlys].[Nae].[Nphe].[am]}$$$$V2.0”, 5.0%.

“PEPTIDE1{[Ntri].[Npib].[Nlys].[Nae].[Npib].[am]}$$$$V2.0” gave an isolated yield of 70%. Still for that read-out and setting: as for “PEPTIDE1{[Ntri].[Ntma].[Nlys].[Nae].[Ntma].[am]}$$$$V2.0”, the figure is 5.8%; as for “Palmitoyl-G[Gly(N-cHex)][Nlys][Gly(N-2-aminoethyl)][Gly(N-cHex)]-NH2 (SMILES CCCCCCCCCCCCCCCC(=O)NCC(=O)N(CC(=O)N(CCCCN)CC(=O)N(CCN)CC(=O)N(CC(N)=O)C1CCCCC1)C1CCCCC1)”, 34.4%.

The substance “Myristoyl-G[Gly(N-cHex)][Nlys][Gly(N-2-aminoethyl)][Gly(N-cHex)]-NH2 (SMILES CCCCCCCCCCCCCC(=O)NCC(=O)N(CC(=O)N(CCCCN)CC(=O)N(CCN)CC(=O)N(CC(N)=O)C1CCCCC1)C1CCCCC1)” displayed an isolated yield of 3.4%. On to “PEPTIDE1{[Ntri].[Nai].[Nlys].[Nae].[Nai].[am]}$$$$V2.0”, for which the isolated yield was found to be 4.4%. For the substance “PEPTIDE1{[Ntri].[Npcb].[Nlys].[Nae].[Npcb].[am]}$$$$V2.0”, the isolated yield amounted to 60.8%. The same measure, in the same setting: as for “PEPTIDE1{[Ntri].[Npfb].[Nlys].[Nae].[Npfb].[am]}$$$$V2.0”, the figure is 8.6%; as for “PEPTIDE1{[Ntri].[Ncha].[Nlys].[Nlys].[Ncha].[am]}$$$$V2.0”, 58.7%.

“PEPTIDE1{[Ntri].[Nfur].[Nlys].[Nae].[Nfur].[am]}$$$$V2.0” returned an isolated yield of 15.7%. Same read-out and setting: for “PEPTIDE1{[Ntri].[Npbb].[Nlys].[Nae].[Npbb].[am]}$$$$V2.0” the value was 55%; for “PEPTIDE1{[Ntri].[Ntrp].[Nlys].[Nae].[Ntrp].[am]}$$$$V2.0”, 1.7%; for “PEPTIDE1{[Ntri].[Ncha].[Nlys(Me)3].[Nae(Me)3].[Ncha].[am]}$$$$V2.0”, 6.7%.

The series is the same for the next values; noted with them: whole synthesis, HPLC.
Take “PEPTIDE1{[Ntri].[Ncha].[Nlys].[Nae].[Ncha].[am]}$$$$V2.0”: the “final HPLC purity” value is given as above 95%.
